# Experimental data taken from publication PMC6400558 (2019).
# Numbering of substitutions follows the chain as printed. These are yes or no findings as the source states them, for the method shown. In cells and extracts the contact can be indirect. For some assays here: Binding calls can cover weak binding; strength is not graded here. For some assays here: Sequences can lack the tags named with a protein.
# What was measured:
# [1] = target: T1, MBP-tagged Hook2 N427 Q143A (human) (UniProt Q96ED9); assay: pull-down; MBP-tagged Hook2 N427 (WT or mutants) on amylose beads incubated with whole-cell lysate of HEK293T cells (asynchronous, or harvested in cytokinesis for MKLP1), 4°C, 3 h, 20 mM Hepes pH 7.4, 350 mM NaCl, 1 mM DTT, 2 mM MgCl2, 0.1% Triton X-100, 2 mg/ml BSA; immunoblot; only the target purified
# T1 sequence: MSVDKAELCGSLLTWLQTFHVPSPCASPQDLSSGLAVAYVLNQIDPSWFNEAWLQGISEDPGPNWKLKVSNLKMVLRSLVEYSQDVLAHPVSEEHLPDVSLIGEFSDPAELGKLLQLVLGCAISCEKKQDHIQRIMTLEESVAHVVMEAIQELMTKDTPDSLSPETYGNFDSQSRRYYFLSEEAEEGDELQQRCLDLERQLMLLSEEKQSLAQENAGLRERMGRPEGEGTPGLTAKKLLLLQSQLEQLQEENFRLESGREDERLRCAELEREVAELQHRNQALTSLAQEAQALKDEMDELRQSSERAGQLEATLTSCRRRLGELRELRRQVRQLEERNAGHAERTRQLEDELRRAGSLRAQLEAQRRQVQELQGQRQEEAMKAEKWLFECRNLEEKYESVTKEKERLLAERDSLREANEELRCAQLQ
# [2] = target: T2, MBP-tagged Hook2 N427 I150A (human) (UniProt Q96ED9); assay: as above
# T2 sequence: T1 sequence with A143Q, I150A
# [3] = target: T3, MBP-tagged Hook2 Hook+CC1 (N427) WT (human) (UniProt Q96ED9); assay: as above
# T3 sequence: T1 sequence with A143Q
# [4] = target: T4, Hook2 (endogenous) (human (endogenous in HEK293T)) (UniProt Q96ED9); assay: co-IP; endogenous proteins; HEK293T lysates in TAP lysis buffer (20 mM Tris-HCl pH 7.4, 150 mM NaCl, 0.5% NP-40) with antibody on protein-A/G beads, 3 h, 4°C; cells asynchronous or synchronized (G2, prometaphase, metaphase/anaphase, cytokinesis), with control or other siRNAs or Hook2 plasmids; immunoblot
# T4 sequence: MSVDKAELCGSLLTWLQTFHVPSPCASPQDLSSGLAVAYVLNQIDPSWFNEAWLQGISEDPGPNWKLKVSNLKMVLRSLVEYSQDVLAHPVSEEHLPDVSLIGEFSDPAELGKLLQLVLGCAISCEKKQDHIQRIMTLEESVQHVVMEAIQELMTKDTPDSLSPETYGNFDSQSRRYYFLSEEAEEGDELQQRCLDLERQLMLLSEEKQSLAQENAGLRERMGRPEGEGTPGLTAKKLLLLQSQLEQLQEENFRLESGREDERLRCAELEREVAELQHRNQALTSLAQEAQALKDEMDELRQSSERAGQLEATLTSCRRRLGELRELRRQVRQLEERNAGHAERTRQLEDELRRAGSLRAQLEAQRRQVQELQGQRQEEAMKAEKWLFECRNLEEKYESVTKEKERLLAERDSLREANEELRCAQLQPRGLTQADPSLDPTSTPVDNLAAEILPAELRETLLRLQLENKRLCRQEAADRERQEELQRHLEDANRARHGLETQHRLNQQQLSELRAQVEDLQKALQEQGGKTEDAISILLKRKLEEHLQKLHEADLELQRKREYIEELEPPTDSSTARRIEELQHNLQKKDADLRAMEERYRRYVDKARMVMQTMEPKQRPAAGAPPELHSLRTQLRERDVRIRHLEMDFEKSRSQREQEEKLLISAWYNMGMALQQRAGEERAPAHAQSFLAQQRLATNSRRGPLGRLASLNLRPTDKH
# [5] = target: T5, mitotic kinesin-like protein 1 (MKLP1) (human (endogenous in HEK293T)) (UniProt Q02241); assay: as above
# T5 sequence: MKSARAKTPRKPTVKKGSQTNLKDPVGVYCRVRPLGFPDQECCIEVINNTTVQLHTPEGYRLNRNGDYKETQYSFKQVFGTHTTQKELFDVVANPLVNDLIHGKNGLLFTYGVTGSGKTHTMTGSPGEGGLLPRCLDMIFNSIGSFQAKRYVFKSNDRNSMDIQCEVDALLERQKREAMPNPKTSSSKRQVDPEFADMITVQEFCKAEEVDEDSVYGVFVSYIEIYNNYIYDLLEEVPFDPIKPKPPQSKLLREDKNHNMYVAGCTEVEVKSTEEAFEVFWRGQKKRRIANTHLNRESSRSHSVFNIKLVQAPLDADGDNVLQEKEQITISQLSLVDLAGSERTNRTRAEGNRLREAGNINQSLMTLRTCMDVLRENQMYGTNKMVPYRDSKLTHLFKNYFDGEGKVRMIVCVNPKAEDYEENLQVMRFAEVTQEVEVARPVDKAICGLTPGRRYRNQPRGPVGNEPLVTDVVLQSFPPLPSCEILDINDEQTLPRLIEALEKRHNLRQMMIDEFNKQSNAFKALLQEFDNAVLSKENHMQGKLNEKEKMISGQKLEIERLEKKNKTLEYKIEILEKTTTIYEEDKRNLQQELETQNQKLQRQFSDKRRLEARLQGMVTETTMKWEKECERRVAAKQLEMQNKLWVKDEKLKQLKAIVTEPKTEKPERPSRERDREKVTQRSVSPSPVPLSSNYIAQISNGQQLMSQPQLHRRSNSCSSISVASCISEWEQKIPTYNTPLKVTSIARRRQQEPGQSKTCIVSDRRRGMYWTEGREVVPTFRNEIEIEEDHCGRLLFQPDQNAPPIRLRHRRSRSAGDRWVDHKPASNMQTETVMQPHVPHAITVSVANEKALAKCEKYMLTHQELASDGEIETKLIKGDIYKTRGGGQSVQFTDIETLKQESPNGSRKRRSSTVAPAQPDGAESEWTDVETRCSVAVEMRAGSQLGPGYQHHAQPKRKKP
substance,measurement,setting,value
dynein intermediate chain (DIC) (human (endogenous in HEK293T)),binding,[1],no binding
same,binding,[2],no binding
same,binding,[3],binds
same,binding,[4],binds
same,binding,[5],binds
